PubChem BioAssay AID1259254 – NCATS – 2017
Aim: 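Gene knock-downs that lead to re-replication, shown by excess G2 DNA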 (primary screen). System: human HCT116 colorectal cancer cells. Reagents: single siRNA against human genes. Duration: 3 days. Measured: 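Imaged Hoechst DNA stain sorts each cell into a cycle phase by DNA amount; per plate, G2 fraction set to 0% for non-targeting and 100% for GMNN siRNA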. Direction: G2 robust z-score and G2 cells, % of GMNN control: higher = more G2 cells, more excess DNA replication; raw share of cells in G2: higher = larger share of cells with G2 DNA content. Active means: 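Active siRNAs have a G2 robust z of 5 or more median absolute deviations over the median, which in these data means about 38% or higher of GMNN control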.
This is a random part of about 59,000 reagents. About 1,550 of them (2.6%) count as active. 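G2 share is only a proxy for re-replication; each gene was hit by three separate siRNAs, and active genes were retested.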 The raw values are shown without normalisation. A number with no mark means an inactive call. The numbers tell different reagents against one gene apart. Not given: the amount of reagent.

no.	gene	reagent no.	G2 robust z-score	G2 cells, % of GMNN control	raw share of cells in G2 (%)
1	XKR8 (XK related 8)	1	3.14	25.1	14.2
2	XKR8 (XK related 8)	2	-0.981	-3.93	2.51
3	XKR8 (XK related 8)	3	-0.0862	2.36	3.89
4	IMP4 (IMP U3 small nucleolar ribonucleoprotein 4)	1	1.16	11.1	9.74
5	IMP4 (IMP U3 small nucleolar ribonucleoprotein 4)	2	1.11	10.8	8.55
6	IMP4 (IMP U3 small nucleolar ribonucleoprotein 4)	3	-0.146	1.94	6.57
7	RPGRIP1 (RPGR interacting protein 1)	1	0.647	7.52	7.31
8	RPGRIP1 (RPGR interacting protein 1)	2	-0.369	0.368	4.64
9	RPGRIP1 (RPGR interacting protein 1)	3	-0.942	-3.66	1.87
10	CCL18 (C-C motif chemokine ligand 18)	1	0.995	9.96	9.04
11	CCL18 (C-C motif chemokine ligand 18)	2	2.2	18.4	10.9
12	CCL18 (C-C motif chemokine ligand 18)	3	-0.155	1.88	4.58
13	PLET1 (placenta expressed transcript 1)	1	-0.472	-0.355	3.86
14	PLET1 (placenta expressed transcript 1)	2	1.51	13.6	9.22
15	PLET1 (placenta expressed transcript 1)	3	-1.19	-5.37	2.03
16	GNAT2 (G protein subunit alpha transducin 2)	1	-0.895	-3.33	4.03
17	GNAT2 (G protein subunit alpha transducin 2)	2	0.496	6.46	7.72
18	GNAT2 (G protein subunit alpha transducin 2)	3	-0.266	1.09	4.05
19	ANGPT2 (angiopoietin 2)	1	-0.786	-2.56	4.16
20	ANGPT2 (angiopoietin 2)	2	6.62 (active)	49.6	21.6
21	ANGPT2 (angiopoietin 2)	3	-0.405	0.119	4.04
22	LIMS1 (LIM zinc finger domain containing 1)	1	-0.814	-2.76	2.28
23	LIMS1 (LIM zinc finger domain containing 1)	2	3.04	24.4	15.1
24	LIMS1 (LIM zinc finger domain containing 1)	3	-0.339	0.581	5.58
25	RPL36AP31 (ribosomal protein L36a pseudogene 31)	1	-0.0722	2.46	3.96
26	RPL36AP31 (ribosomal protein L36a pseudogene 31)	2	0.313	5.17	5.62
27	RPL36AP31 (ribosomal protein L36a pseudogene 31)	3	-1.09	-4.67	1.65
28	ACRP1 (ACR pseudogene 1)	1	1.16	11.1	7.98
29	ACRP1 (ACR pseudogene 1)	2	1.72	15.1	8.81
30	ACRP1 (ACR pseudogene 1)	3	-0.521	-0.701	2.82
31	RNF217 (ring finger protein 217)	1	0.0251	3.14	4.73
32	RNF217 (ring finger protein 217)	2	-0.469	-0.334	2.85
33	RNF217 (ring finger protein 217)	3	-0.283	0.973	3.07
34	GPX2 (glutathione peroxidase 2)	1	-0.241	1.27	4.11
35	GPX2 (glutathione peroxidase 2)	2	1.4	12.8	9.9
36	GPX2 (glutathione peroxidase 2)	3	-1.18	-5.35	3.23
37	CHCHD2P8	1	0.426	5.97	5.44
38	CHCHD2P8	2	-0.317	0.739	3.28
39	CHCHD2P8	3	-0.409	0.0883	3.81

Called active, of those listed so far:
gene	reagent no.	G2 robust z-score	G2 cells, % of GMNN control	raw share of cells in G2 (%)
ANGPT2 (angiopoietin 2)	2	6.62 (active)	49.6	21.6

The list goes on.
no.	gene	reagent no.	G2 robust z-score	G2 cells, % of GMNN control	raw share of cells in G2 (%)
40	GLRX (glutaredoxin)	1	1.76	15.4	11.1
41	GLRX (glutaredoxin)	2	0.0318	3.19	4.79
42	GLRX (glutaredoxin)	3	1.41	12.9	9.9
43	ATP6AP1 (ATPase H+ transporting accessory protein 1)	1	-0.502	-0.563	3.78
44	ATP6AP1 (ATPase H+ transporting accessory protein 1)	2	0.648	7.52	7.28
45	ATP6AP1 (ATPase H+ transporting accessory protein 1)	3	0.0936	3.63	6.36
46	RSPO4 (R-spondin 4)	1	-0.468	-0.322	3.88
47	RSPO4 (R-spondin 4)	2	-0.171	1.76	4.03
48	RSPO4 (R-spondin 4)	3	1.43	13	9.43
49	EIF4G3 (eukaryotic translation initiation factor 4 gamma 3)	1	-0.136	2.01	5.45
50	EIF4G3 (eukaryotic translation initiation factor 4 gamma 3)	2	0.881	9.17	7.99
51	EIF4G3 (eukaryotic translation initiation factor 4 gamma 3)	3	-0.437	-0.105	5.23
52	OR8H1 (olfactory receptor family 8 subfamily H member 1)	1	1.08	10.6	7.4
53	OR8H1 (olfactory receptor family 8 subfamily H member 1)	2	-0.928	-3.56	1.91
54	OR8H1 (olfactory receptor family 8 subfamily H member 1)	3	-0.333	0.628	3.39
55	ZNF169 (zinc finger protein 169)	1	-0.436	-0.103	3.06
56	ZNF169 (zinc finger protein 169)	2	0.236	4.63	4.77
57	ZNF169 (zinc finger protein 169)	3	-0.313	0.765	3.79
58	NBR1 (NBR1 autophagy cargo receptor)	1	0.835	8.84	8.73
59	NBR1 (NBR1 autophagy cargo receptor)	2	-0.189	1.64	4.87
60	NBR1 (NBR1 autophagy cargo receptor)	3	1.94	16.7	9.37
61	ZSCAN26 (zinc finger and SCAN domain containing 26)	1	-0.675	-1.78	2.93
62	ZSCAN26 (zinc finger and SCAN domain containing 26)	2	-0.649	-1.6	5.27
63	ZSCAN26 (zinc finger and SCAN domain containing 26)	3	-0.198	1.57	4
64	SWI5 (SWI5 homologous recombination repair protein)	1	-0.551	-0.908	4.24
65	SWI5 (SWI5 homologous recombination repair protein)	2	-0.145	1.94	4.44
66	SWI5 (SWI5 homologous recombination repair protein)	3	0.014	3.07	4.74
67	DEFB118 (defensin beta 118)	1	1.05	10.3	8.23
68	DEFB118 (defensin beta 118)	2	-0.687	-1.86	2.77
69	DEFB118 (defensin beta 118)	3	1.66	14.7	6.1
70	HS6ST1P1 (heparan sulfate 6-O-sulfotransferase 1 pseudogene 1)	1	0.958	9.71	6.45
71	HS6ST1P1 (heparan sulfate 6-O-sulfotransferase 1 pseudogene 1)	2	-0.369	0.372	3.25
72	HS6ST1P1 (heparan sulfate 6-O-sulfotransferase 1 pseudogene 1)	3	0.361	5.51	4.41
73	HS6ST1P1 (heparan sulfate 6-O-sulfotransferase 1 pseudogene 1)	4	-0.376	0.319	3.46
74	HS6ST1P1 (heparan sulfate 6-O-sulfotransferase 1 pseudogene 1)	5	0.352	5.44	5.18
75	HS6ST1P1 (heparan sulfate 6-O-sulfotransferase 1 pseudogene 1)	6	-0.807	-2.71	2.89
76	ARF3 (ARF GTPase 3)	1	-0.386	0.255	4.81
77	ARF3 (ARF GTPase 3)	2	-1.2	-5.49	3.12
78	ARF3 (ARF GTPase 3)	3	-0.923	-3.52	2.68
79	RPL31P45 (ribosomal protein L31 pseudogene 45)	1	-0.497	-0.532	2.9
80	RPL31P45 (ribosomal protein L31 pseudogene 45)	2	-0.337	0.597	4.16
81	RPL31P45 (ribosomal protein L31 pseudogene 45)	3	-0.554	-0.929	3.02
82	TM4SF18 (transmembrane 4 L six family member 18)	1	-0.265	1.1	4.53
83	TM4SF18 (transmembrane 4 L six family member 18)	2	-0.606	-1.29	2.94
84	TM4SF18 (transmembrane 4 L six family member 18)	3	0.364	5.53	3.43
85	DOCK2 (dedicator of cytokinesis 2)	1	0.644	7.5	7.73
86	DOCK2 (dedicator of cytokinesis 2)	2	-0.603	-1.28	3.66
87	DOCK2 (dedicator of cytokinesis 2)	3	-0.897	-3.34	3.77
